Assay results from patent US11332455B2, “α,β-unsaturated amide compound” (KYOWA KIRIN CO., LTD., priority 2015, dated 2022).
Some of these results come from one statement about several compounds together.

Test system: NCI-H226 cells, a human mesothelioma cell line
Assay: Cell growth inhibitory effect, cell counting kit 8, 6 days
Assay type: cell-based
Conditions: 6 days incubation, group 100 nmol/L to 1 μmol/L (upper bound given in μmol/L)
Excerpt: Cell growth inhibitory effect on human mesothelioma, human liver cancer, human ovarian cancer, and […]
NCI-H226 cells, a human mesothelioma cell line (ATCC, CRL-5826), NCI-H322 cells, a human lung cancer cell line (the European Collection of Authenticated Cell Cultures, 95111734), OVTOKO cells, a human ovarian cancer cell line (JCRB cell bank, JCRB1048) and HuH28, a human liver cancer cell line (JCRB cell bank, JCRB0426) were each subcultured by keeping the cell density under 80% in a RPMI1640 culture medium with 10% fetal bovine serum (FBS). NCI-H226 cells, NCI-H322 cells and SSP-25 cells were each suspended in the RPM11640 culture medium mentioned above, and plated to a 96-well flat-bottom plate at 500 cells/well in each well, and incubated at 37° C. in an incubator with 5% CO2 for one day. After the incubation, the evaluation of cell growth inhibitory activity was started. OVTOKO cells were suspended in the RPMI1640 culture medium mentioned above, and plated to a 96-well flat-bottom plate at 250 cells/well in each well, and incubated it at 37° C. in an incubator with 5% CO2 for one day. After the incubation, the evaluation of the cell growth inhibitory activity was started. […] After the reaction, an absorbance at wavelength of 450 nm was measured using a microplate reader. […]

**Q.** For `C=CC(=O)NC1COc2c(cccc2Oc2ccc(S(=O)(=O)C(F)(F)F)cc2)C1` (stereo not shown) [Compound 159, N-(8-[{4-(Trifluoromethyl)sulfonyl}phenoxy]chroman-3-yl)acrylamide], which GI50 is on record?
**A.** 100 to 1000 nM
